Data from the supplement of paper PMC10849652.
This is one part of the list.

By UniProt entry, the sequences of proteins in these tests, tags left out. Where a name states a change or a piece, a line headed by the entry shows the natural chain unless it says otherwise.
UniProt Q16600: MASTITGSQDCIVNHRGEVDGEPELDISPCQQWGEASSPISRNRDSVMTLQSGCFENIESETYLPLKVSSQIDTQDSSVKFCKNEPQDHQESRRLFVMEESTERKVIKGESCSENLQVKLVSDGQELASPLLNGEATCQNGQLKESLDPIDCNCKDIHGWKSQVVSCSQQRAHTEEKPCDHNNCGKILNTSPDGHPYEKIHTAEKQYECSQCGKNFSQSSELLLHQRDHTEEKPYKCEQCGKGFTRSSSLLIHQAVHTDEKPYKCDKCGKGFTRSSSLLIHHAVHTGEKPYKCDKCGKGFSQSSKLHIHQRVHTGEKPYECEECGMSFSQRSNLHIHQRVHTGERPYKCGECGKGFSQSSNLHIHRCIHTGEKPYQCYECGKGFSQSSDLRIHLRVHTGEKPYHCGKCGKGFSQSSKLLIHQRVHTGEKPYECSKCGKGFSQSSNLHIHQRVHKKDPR
UniProt O00488: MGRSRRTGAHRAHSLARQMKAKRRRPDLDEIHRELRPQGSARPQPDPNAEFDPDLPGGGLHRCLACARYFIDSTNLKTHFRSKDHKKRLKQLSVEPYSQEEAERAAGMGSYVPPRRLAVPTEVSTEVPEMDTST
UniProt Q9BRR0: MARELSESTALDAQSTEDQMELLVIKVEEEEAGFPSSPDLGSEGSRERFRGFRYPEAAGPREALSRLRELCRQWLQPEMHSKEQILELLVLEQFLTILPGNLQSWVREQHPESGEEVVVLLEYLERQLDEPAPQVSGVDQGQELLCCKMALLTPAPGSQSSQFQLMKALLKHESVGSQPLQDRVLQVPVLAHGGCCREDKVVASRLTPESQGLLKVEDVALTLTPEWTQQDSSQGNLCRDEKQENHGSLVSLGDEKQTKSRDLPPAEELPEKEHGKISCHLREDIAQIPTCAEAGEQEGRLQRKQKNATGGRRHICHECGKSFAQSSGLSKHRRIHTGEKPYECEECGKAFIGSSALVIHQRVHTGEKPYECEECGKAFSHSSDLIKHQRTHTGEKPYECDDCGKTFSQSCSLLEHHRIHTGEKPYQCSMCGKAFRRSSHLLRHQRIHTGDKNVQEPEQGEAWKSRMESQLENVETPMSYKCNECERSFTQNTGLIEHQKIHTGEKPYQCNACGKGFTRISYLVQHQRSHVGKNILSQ
UniProt Q6ZN55: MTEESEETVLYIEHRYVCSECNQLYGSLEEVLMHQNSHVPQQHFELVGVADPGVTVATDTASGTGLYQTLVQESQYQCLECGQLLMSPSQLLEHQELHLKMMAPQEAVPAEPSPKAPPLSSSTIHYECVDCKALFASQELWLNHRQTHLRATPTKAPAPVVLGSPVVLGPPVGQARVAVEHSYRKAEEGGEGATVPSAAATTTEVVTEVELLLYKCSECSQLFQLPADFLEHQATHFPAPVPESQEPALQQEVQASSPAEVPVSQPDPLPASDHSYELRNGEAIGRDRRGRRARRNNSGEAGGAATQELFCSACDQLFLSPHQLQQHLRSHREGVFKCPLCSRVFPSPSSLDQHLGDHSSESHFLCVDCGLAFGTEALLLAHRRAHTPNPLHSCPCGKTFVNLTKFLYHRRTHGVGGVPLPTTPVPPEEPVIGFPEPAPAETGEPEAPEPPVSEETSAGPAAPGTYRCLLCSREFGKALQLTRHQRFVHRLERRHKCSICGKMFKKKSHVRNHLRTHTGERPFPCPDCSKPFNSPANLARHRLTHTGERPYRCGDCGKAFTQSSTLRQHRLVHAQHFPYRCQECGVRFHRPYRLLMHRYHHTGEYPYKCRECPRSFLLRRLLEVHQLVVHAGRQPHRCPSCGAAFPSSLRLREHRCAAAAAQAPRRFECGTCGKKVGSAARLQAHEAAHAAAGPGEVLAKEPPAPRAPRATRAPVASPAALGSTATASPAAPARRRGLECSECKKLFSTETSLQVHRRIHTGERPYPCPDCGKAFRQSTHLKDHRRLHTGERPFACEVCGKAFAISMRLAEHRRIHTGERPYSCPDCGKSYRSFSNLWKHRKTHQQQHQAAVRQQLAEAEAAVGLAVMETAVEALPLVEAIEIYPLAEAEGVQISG
UniProt Q16587: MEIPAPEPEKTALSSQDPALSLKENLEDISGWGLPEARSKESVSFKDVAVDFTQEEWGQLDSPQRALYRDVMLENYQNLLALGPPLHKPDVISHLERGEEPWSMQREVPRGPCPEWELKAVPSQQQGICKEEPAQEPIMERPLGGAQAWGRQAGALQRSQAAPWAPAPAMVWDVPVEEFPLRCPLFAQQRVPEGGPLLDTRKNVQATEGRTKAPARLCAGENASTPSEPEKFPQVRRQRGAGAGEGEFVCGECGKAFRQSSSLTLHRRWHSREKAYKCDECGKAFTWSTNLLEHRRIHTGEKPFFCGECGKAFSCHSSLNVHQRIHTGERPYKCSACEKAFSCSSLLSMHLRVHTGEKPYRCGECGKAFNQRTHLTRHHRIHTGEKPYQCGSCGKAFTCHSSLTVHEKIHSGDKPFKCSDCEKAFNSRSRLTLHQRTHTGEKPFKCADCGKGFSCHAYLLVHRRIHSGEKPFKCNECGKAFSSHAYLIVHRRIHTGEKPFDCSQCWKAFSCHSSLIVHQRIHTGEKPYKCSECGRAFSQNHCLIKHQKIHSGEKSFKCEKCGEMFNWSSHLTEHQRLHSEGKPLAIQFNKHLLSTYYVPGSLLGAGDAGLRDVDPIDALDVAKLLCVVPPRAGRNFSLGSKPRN
UniProt Q2TB10: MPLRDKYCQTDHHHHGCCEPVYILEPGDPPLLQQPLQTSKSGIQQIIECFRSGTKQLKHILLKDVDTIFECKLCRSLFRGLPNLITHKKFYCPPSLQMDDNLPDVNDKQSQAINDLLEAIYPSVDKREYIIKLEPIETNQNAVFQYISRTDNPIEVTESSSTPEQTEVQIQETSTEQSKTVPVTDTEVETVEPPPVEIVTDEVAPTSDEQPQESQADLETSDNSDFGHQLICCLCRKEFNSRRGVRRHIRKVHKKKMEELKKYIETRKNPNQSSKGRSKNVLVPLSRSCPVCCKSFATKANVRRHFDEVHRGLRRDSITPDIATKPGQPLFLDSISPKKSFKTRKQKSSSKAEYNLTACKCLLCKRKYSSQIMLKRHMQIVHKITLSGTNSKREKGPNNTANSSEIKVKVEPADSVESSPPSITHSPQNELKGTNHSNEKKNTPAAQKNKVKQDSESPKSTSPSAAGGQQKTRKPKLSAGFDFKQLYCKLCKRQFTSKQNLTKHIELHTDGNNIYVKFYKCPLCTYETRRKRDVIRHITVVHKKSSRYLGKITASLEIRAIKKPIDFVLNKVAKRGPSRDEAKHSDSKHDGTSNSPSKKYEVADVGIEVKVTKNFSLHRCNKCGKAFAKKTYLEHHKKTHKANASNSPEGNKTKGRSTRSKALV
UniProt Q9H4I2: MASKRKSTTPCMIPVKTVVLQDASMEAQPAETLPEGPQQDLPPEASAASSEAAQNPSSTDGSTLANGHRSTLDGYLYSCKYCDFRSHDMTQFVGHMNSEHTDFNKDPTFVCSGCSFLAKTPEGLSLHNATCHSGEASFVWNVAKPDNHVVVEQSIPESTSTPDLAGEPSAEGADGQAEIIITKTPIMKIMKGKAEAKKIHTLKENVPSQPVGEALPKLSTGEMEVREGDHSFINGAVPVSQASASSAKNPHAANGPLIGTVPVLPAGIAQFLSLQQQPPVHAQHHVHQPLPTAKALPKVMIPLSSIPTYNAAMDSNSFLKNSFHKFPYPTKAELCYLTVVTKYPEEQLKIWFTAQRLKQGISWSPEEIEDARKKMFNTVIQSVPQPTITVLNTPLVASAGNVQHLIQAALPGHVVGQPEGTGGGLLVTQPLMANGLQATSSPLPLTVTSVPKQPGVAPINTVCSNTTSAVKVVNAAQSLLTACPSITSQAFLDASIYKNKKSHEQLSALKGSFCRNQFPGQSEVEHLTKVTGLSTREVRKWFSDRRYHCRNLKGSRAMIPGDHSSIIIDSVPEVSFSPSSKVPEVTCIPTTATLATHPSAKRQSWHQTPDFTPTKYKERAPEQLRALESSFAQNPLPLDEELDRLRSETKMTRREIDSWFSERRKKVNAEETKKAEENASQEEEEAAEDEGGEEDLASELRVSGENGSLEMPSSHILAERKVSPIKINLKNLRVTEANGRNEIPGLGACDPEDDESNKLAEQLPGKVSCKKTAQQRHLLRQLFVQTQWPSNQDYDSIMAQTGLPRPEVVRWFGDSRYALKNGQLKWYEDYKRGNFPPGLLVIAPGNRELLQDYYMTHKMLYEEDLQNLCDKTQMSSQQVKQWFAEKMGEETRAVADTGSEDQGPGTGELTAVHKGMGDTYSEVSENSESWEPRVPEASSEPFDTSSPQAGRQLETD
UniProt Q96MX3: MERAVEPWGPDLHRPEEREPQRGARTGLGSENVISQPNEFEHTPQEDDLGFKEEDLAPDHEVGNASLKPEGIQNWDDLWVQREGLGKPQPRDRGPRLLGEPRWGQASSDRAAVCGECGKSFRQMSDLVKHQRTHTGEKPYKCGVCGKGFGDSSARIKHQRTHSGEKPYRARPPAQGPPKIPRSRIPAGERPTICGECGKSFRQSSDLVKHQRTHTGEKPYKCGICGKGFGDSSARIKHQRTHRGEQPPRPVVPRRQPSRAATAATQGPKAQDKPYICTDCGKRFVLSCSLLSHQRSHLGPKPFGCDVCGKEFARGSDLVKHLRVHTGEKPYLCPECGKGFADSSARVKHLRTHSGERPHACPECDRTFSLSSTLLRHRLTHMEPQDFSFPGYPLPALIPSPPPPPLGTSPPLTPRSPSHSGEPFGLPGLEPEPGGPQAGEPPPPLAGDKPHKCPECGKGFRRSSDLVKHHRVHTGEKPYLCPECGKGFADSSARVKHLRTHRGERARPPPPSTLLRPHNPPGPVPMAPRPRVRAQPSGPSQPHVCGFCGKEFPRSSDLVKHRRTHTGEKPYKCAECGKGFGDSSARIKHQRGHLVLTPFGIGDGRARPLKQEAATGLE
UniProt Q9UDW3: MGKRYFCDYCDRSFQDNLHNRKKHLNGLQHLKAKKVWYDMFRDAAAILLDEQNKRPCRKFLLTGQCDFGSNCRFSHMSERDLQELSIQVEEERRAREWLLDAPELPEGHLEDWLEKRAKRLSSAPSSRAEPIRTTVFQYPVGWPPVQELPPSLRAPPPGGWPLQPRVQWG
UniProt Q6NSZ9: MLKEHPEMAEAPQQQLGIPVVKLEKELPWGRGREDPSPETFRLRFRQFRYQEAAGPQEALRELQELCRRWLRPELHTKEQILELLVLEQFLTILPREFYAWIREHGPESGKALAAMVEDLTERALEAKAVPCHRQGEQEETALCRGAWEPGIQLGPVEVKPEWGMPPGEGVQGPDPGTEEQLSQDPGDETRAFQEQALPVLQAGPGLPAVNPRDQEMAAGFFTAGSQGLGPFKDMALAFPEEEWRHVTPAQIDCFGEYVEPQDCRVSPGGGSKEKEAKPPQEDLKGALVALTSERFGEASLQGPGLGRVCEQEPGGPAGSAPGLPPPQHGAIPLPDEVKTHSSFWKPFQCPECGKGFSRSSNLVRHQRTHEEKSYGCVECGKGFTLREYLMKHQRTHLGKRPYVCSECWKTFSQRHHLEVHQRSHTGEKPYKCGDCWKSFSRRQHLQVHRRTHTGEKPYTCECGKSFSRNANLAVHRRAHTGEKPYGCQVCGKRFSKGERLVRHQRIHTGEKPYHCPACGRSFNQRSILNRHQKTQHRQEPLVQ
UniProt Q8N720: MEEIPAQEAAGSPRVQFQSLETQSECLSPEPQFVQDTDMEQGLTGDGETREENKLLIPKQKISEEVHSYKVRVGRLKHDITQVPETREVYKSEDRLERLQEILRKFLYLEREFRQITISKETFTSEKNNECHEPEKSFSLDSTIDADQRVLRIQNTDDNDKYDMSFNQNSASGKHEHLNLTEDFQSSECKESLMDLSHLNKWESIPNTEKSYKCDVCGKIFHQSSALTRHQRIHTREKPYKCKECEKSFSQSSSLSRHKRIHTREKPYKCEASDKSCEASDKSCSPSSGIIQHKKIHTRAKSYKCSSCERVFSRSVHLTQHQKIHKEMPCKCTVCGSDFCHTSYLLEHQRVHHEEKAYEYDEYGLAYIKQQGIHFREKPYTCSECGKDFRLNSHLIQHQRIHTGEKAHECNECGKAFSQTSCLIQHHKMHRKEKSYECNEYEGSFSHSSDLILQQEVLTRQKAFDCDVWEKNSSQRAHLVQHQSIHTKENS
UniProt Q86VK4: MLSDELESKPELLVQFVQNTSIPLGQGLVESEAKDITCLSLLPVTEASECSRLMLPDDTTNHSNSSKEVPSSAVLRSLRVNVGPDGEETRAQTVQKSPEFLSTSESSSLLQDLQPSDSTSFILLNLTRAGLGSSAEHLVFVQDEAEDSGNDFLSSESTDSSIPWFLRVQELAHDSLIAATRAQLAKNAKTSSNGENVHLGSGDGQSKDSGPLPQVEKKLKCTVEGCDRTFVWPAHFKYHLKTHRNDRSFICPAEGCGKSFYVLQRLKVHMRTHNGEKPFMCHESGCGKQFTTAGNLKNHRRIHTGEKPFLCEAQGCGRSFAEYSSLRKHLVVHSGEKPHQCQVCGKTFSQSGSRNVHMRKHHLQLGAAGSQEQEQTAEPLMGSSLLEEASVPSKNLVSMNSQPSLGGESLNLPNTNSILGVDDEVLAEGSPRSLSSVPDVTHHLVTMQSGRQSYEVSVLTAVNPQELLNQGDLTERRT

Legend:
Test in all cases: log2 fold change, soluble protein after heating vs DMSO (PISA); higher = thermal stabilisation; K562 lysate, 10 uM; active = over 0.2 and 3.5 SD of the protein, either way, in both replicates (recomputed)
dasatinib = compound: Cc1nc(Nc2ncc(C(=O)Nc3c(C)cccc3Cl)s2)cc(N2CCN(CCO)CC2)n1 [dasatinib]
Method in brief: (§1)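 Dounce homogenisation of K562 pellets in PBS pH 7.4 with 1 mM MgCl2 produced a crude extract, used at 1 mg/mL protein. Exposure to 10 μM compound lasted 30 min, and aliquots were then heated for 3 min across 48°C-58°C, pooled and brought to 0.5% NP-40 at 4°C. The supernatant after 21,000xg for 90 min was quantified by TMTpro 16plex LC-MS/MS with channel sums equalised. Duplicate values are given as log-two fold change in thermal stability relative to solvent controls.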

[1] = compound: Cn1cc(-c2ccc3c(c2)CCN3C(=O)Cc2cccc(C(F)(F)F)c2)c2c(N)ncnc21
Method in brief: as §1

quisinostat = compound: Cn1cc(CNCC2CCN(c3ncc(C(=O)NO)cn3)CC2)c2ccccc21 [quisinostat]
Method in brief: as §1

[2] = compound: NC(=O)Nc1cc(-c2cccc(F)c2)sc1C(=O)N[C@H]1CCCNC1
Method in brief: as §1

[3] = compound: NC(=O)c1cnc(N[C@@H]2CCCC[C@@H]2N)nc1Nc1cccc(-n2nccn2)c1
Method in brief: as §1

[4] = compound: NC1(c2ccc(-c3nc4ccn5c(=O)[nH]nc5c4cc3-c3ccccc3)cc2)CCC1
Method in brief: as §1

vorinostat = compound: O=C(CCCCCCC(=O)Nc1ccccc1)NO [vorinostat]
Method in brief: as §1

silmitasertib = compound: O=C(O)c1ccc2c(c1)nc(Nc1cccc(Cl)c1)c1ccncc12 [silmitasertib]
Method in brief: as §1

[5] = compound: O=C1NC(=O)C(c2cnc3ccccn23)=C1c1cn2c3c(cc(F)cc13)CN(C(=O)N1CCCCC1)CC2
Method in brief: as §1

entospletinib = compound: c1cn2cc(-c3ccc4cn[nH]c4c3)nc(Nc3ccc(N4CCOCC4)cc3)c2n1 [entospletinib]
Method in brief: as §1

nilotinib = compound: Cc1cn(-c2cc(NC(=O)c3ccc(C)c(Nc4nccc(-c5cccnc5)n4)c3)cc(C(F)(F)F)c2)cn1 [nilotinib]
Method in brief: as §1

[6] = compound: Cc1nc(Nc2n[nH]c3c2CN(C(=O)N[C@H](CN(C)C)c2ccccc2)C3(C)C)c2sccc2n1
Method in brief: as §1

[7] = compound: Cc1ncc(-c2ccnc(Nc3ccc(S(C)(=O)=O)cc3)n2)n1C(C)C
Method in brief: as §1

tipifarnib = compound: Cn1cncc1[C@@](N)(c1ccc(Cl)cc1)c1ccc2c(c1)c(-c1cccc(Cl)c1)cc(=O)n2C [tipifarnib]
Method in brief: as §1

[8] = compound: NCC(=O)Nc1ccc(-n2nc(C(F)(F)F)cc2-c2ccc3c(ccc4ccccc43)c2)cc1
Method in brief: as §1

Measured: log2 fold change

ZNF592 (UniProt Q92610)
inactive: dasatinib -0.046 | [1] 0.012 | quisinostat -0.16 | [2] 0.165 | [3] -0.08 | [4] -0.094 | vorinostat -0.231 | silmitasertib 0.064 | [5] -0.038 | entospletinib 0

ZNF239 (UniProt Q16600)
inactive: nilotinib -0.02 | [6] 0.072 | [7] 0.077 | quisinostat -0.075 | tipifarnib -0.043 | [2] -0.054 | [4] -0.019 | [8] 0.105 | vorinostat -0.01 | silmitasertib -0.105 | [5] 0.019 | entospletinib -0.056

ZNF593 (UniProt O00488)
inactive: dasatinib 0.125 | [1] -0.042 | quisinostat 0.02 | [2] 0.063 | [3] 0.295 | [4] 0.03 | [8] -0.029 | vorinostat 0.191 | silmitasertib -0.001 | [5] 0.044 | entospletinib 0.027

ZKSCAN3 (UniProt Q9BRR0)
inactive: dasatinib 0.125 | [1] -0.053 | quisinostat -0.027 | [2] 0.001 | [3] 0.247 | [4] -0.051 | [8] 0.32 | vorinostat 0.017 | silmitasertib -0.091 | [5] 0.082 | entospletinib -0.018

ZNF146 (UniProt Q15072)
inactive: dasatinib -0.028 | [1] 0.188

ZNF574 isoform 2 (UniProt Q6ZN55)
inactive: nilotinib -0.107 | [6] 0.02 | [7] -0.034 | quisinostat -0.232 | tipifarnib 0.019 | [2] 0.235 | [3] -0.054 | [4] -0.048 | vorinostat 0.107 | silmitasertib 0.036 | [5] -0.159 | entospletinib -0.095

ZNF74 isoform 5 (UniProt Q16587)
inactive: nilotinib 0.043 | [6] 0.025 | dasatinib 0.133 | [7] -0.073 | [1] -0.047 | tipifarnib 0.063 | [3] 0.008 | [4] 0.018 | vorinostat 0.037 | silmitasertib 0.133 | entospletinib 0.111

ZNF407 (UniProt Q9C0G0)
inactive: dasatinib -0.131 | [1] 0.191 | [3] -0.023 | [4] -0.116 | [8] 0.034 | vorinostat -0.081 | silmitasertib -0.163 | entospletinib -0.003

Seven neighbouring entries from above, quoted:
ZNF592 (UniProt Q92610)
inactive: dasatinib -0.046 | [1] 0.012 | quisinostat -0.16 | [2] 0.165 | [3] -0.08 | [4] -0.094 | vorinostat -0.231 | silmitasertib 0.064 | [5] -0.038 | entospletinib 0

ZNF239 (UniProt Q16600)
inactive: nilotinib -0.02 | [6] 0.072 | [7] 0.077 | quisinostat -0.075 | tipifarnib -0.043 | [2] -0.054 | [4] -0.019 | [8] 0.105 | vorinostat -0.01 | silmitasertib -0.105 | [5] 0.019 | entospletinib -0.056

ZNF593 (UniProt O00488)
inactive: dasatinib 0.125 | [1] -0.042 | quisinostat 0.02 | [2] 0.063 | [3] 0.295 | [4] 0.03 | [8] -0.029 | vorinostat 0.191 | silmitasertib -0.001 | [5] 0.044 | entospletinib 0.027

ZKSCAN3 (UniProt Q9BRR0)
inactive: dasatinib 0.125 | [1] -0.053 | quisinostat -0.027 | [2] 0.001 | [3] 0.247 | [4] -0.051 | [8] 0.32 | vorinostat 0.017 | silmitasertib -0.091 | [5] 0.082 | entospletinib -0.018

ZNF146 (UniProt Q15072)
inactive: dasatinib -0.028 | [1] 0.188

ZNF574 isoform 2 (UniProt Q6ZN55)
inactive: nilotinib -0.107 | [6] 0.02 | [7] -0.034 | quisinostat -0.232 | tipifarnib 0.019 | [2] 0.235 | [3] -0.054 | [4] -0.048 | vorinostat 0.107 | silmitasertib 0.036 | [5] -0.159 | entospletinib -0.095

ZNF74 isoform 5 (UniProt Q16587)
inactive: nilotinib 0.043 | [6] 0.025 | dasatinib 0.133 | [7] -0.073 | [1] -0.047 | tipifarnib 0.063 | [3] 0.008 | [4] 0.018 | vorinostat 0.037 | silmitasertib 0.133 | entospletinib 0.111

Additional entries follow.

ZNF746 isoform 2 (UniProt Q6NUN9)
inactive: nilotinib -0.03 | [6] -0.142 | [7] -0.083 | tipifarnib 0.06

ZNF800 (UniProt Q2TB10)
inactive: dasatinib -0.044 | [1] 0.005 | [3] 0.002 | [4] -0.126 | vorinostat 0.196 | silmitasertib 0.003

ZHX3 (UniProt Q9H4I2)
inactive: nilotinib 0.055 | [6] 0.045 | dasatinib -0.128 | [7] 0.024 | [1] 0.136 | tipifarnib 0.068 | [3] -0.048 | [8] -0.196

ZNF444 (UniProt Q8N0Y2)
inactive: dasatinib 0.009 | [1] -0.065 | quisinostat -0.108 | [2] -0.063 | [5] 0.239

ZNF48 (UniProt Q96MX3)
inactive: [3] -0.06 | entospletinib -0.022

ZNF280A, A0A0G2JN84
inactive: quisinostat -0.138 | [2] -0.062 | [5] -0.038

ZMAT5 (UniProt Q9UDW3)
inactive: [4] 0.35 | vorinostat -0.004 | silmitasertib 0.031

ZNF225 (UniProt Q9UK10)
inactive: dasatinib -0.117 | [1] -0.389 | [4] -0.388 | [8] 0.467 | vorinostat 0.274 | silmitasertib -0.011 | entospletinib -0.056

ZNF445 (UniProt P59923)
inactive: dasatinib 0.083 | [1] -0.026 | [4] -0.313 | [8] 0.027 | vorinostat 0.209 | silmitasertib -0.213

ZSCAN25 (UniProt Q6NSZ9)
inactive: dasatinib -0.172 | [1] -0.065 | [4] -0.025 | vorinostat -0.042 | silmitasertib 0.045

ZNF655 isoform 3 (UniProt Q8N720)
inactive: quisinostat -0.317 | [2] -0.011 | [5] 0.078 | entospletinib 0.06

ZNF410 isoform 5 (UniProt Q86VK4)
inactive: quisinostat 0.173 | [2] -0.087 | [5] -0.085 | entospletinib 0.022

ZKSCAN4 (UniProt Q969J2)
inactive: quisinostat -0.038 | [2] -0.064 | [3] 0.061 | [4] -0.049 | [8] -0.046 | vorinostat -0.285 | silmitasertib 0.074 | [5] -0.067

ZMYND19 (UniProt Q96E35)
inactive: quisinostat 0.154 | [2] -0.005 | [4] 0.071 | vorinostat 0.008 | silmitasertib -0.092 | [5] 0.015

ZNF525 (UniProt J3KR51)
inactive: [4] -0.165 | [8] 0.066 | vorinostat -0.4 | silmitasertib 0.199

ZNF595 (UniProt Q8IYB9)
inactive: quisinostat -0.027 | [2] -0.142 | [8] -0.01 | [5] -0.054 | entospletinib -0.049
